# Measured values published in the supplement of paper PMC5949888.
# Most values lie at the floor of the assay. Slopes are relative: functional sequences can read slightly below zero.
# Test system: Saccharomyces cerevisiae PS128 hsf1 delta, HSF1(1-493) fusion
# Assay: growth estimate (transactivation domain function in HSF1 fusion, heat-shock survival) (a.u. (slope of normalised read count over time)); higher = stronger growth at 37°C, i.e. more transactivation activity
# Details: library: random library
# Protocol: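 Random 60-nt DNA library encoding peptides of up to 20 aa, fused to the C-terminus of yeast HSF1 residues 1-493 (C-terminal TAD deleted) and expressed from the native HSF1 promoter on a CEN plasmid in hsf1-deleted S. cerevisiae PS128. Cells were selected at 37°C on -trp 5-FOA plates for 0, 2, 4, 6 and 8 days and amplicons were sequenced. Growth estimate is the slope of a robust linear fit of total-sum-normalised read counts (normalised to the first time point) over time, using at least 2 replicates. Sequences are classed functional (TAD activity) above a threshold of -0.13, set from stop-codon control sequences.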
row,Substance,growth estimate
1,GLPRRMLPNCLLINEGSKGW,< -0.25
2,GLPVRGFSESKVGRHRAHNS,< -0.25
3,GLPYW,< -0.25
4,GLQRNSSA,< -0.25
5,GLRCAPETSSVN,< -0.25
6,GLRFPSQVIEGQLYCVVVSS,< -0.25
7,GLRGEGLSLRR,< -0.25
8,GLRGHVGHREQPLLA,< -0.25
9,GLRLITL,-0.246
10,GLRLQL,< -0.25
11,GLRQVVAH,< -0.25
12,GLRSGTCGAAPCR,< -0.25
13,GLRWL,< -0.25
14,GLSAVSSVPDYRR,< -0.25
15,GLSDAIEV,< -0.25
16,GLSDARPYCFFRRFFIWV,< -0.25
17,GLSF,< -0.25
18,GLSFVSGGFLFHNSPLQKPS,-0.197
19,GLSLAPTRTGRGSLAVTMMN,< -0.25
20,GLSMFDG,< -0.25
21,GLSQAEMF,< -0.25
22,GLSQVWEKRSRPSARAR,< -0.25
23,GLSRLSSEIAMPIVTAKRGS,< -0.25
24,GLSVQHQSMPLQFF,< -0.25
25,GLTCIYVASIVN,< -0.25

row,Substance,growth estimate
1,GLTPCILCRDLHRVCSLGI,-0.249
2,GLTRE,< -0.25
3,GLTRPLYQYLV,< -0.25
4,GLTYDLSPAAPRLLQRIRTT,< -0.25
5,GLVAGCAWHFSVPHHSVVFG,< -0.25
6,GLVEGFYVL,< -0.25
7,GLVGL,< -0.25
8,GLVLVVGMQKSGRKILVASA,< -0.25
9,GLVRLWVPGAQPTVGW,< -0.25
10,GLVTPCNFVTPNPDSGSYCT,< -0.25
11,GLVYAGRRGVGWAQRCTGEV,< -0.25
12,GLWS,< -0.25
13,GMAEDGQVNATLADACALSH,< -0.25
14,GMCGKGHPVHWLALVIRGLL,< -0.25
15,GMCGKSVYV,< -0.25
16,GMFGFWRDHSC,< -0.25
17,GMFHR,-0.219
18,GMGAFMFLC,< -0.25
19,GMGLDHGLERPPTLPTVRCA,< -0.25
20,GMGLLG,< -0.25
21,GMGRLALAQSWNNRVRSVND,< -0.25
22,GMMAGYTQYQFSIQSTHLIG,< -0.25
23,GMPERVRGVRGVDSETTRKR,< -0.25
24,GMPIGLAGMRKTCSA,< -0.25
25,GMQGPEASSELGGVTYAVEA,< -0.25

row,Substance,growth estimate
1,GMRGP,< -0.25
2,GMSAEFRTFTPWLIIERSHS,< -0.25
3,GMSTKKPRVYEAYLDRGVPA,< -0.25
4,GMSY,< -0.25
5,GMTFWIRPTAPRGIYKTFIE,< -0.25
6,GMTSAPGDAACVVRKGPNIW,< -0.25
7,GMTVYGSCHNEFQDSPE,< -0.25
8,GMVKSG,< -0.25
9,GMYVGGG,< -0.25
10,GMYWVDIYKTRPESGATRER,-0.246
11,GNACTDKEMASDLVMQAGSM,< -0.25
12,GNAGGQPLGSPSFQVYGR,< -0.25
13,GNCHRRLEAIILDDLHYVHG,< -0.25
14,GNDLQLAIVDLSWSSLLGKN,-0.243
15,GNERDPFSLTIYT,< -0.25
16,GNFGLSSSCV,< -0.25
17,GNGLKRFNVGMPGDCSWIVT,< -0.25
18,GNGNHGGG,< -0.25
19,GNGRSYGPLTIQAL,< -0.25
20,GNHDR,< -0.25
21,GNIASVLVLYPPSTIG,< -0.25
22,GNIGMTWMVLGMPICHKLPL,< -0.25
23,GNIWGTFFD,-0.139
24,GNKKIDPHLVQLSYRQWRHT,< -0.25
25,GNLA,-0.248

row,Substance,growth estimate
1,GNLGIV,< -0.25
2,GNLNPE,-0.246
3,GNLYRG,-0.248
4,GNPVLGCRLT,< -0.25
5,GNRPAPGIRAPRFMCIHVPS,< -0.25
6,GNRRGSEVKSRASVEFSG,< -0.25
7,GNSILSYPAFGLGGSAVRLP,< -0.25
8,GNSQFS,< -0.25
9,GNSYVGH,< -0.25
10,GNTTGKRWRAHRCWNEL,< -0.25
11,GNVIE,< -0.25
12,GNVRHNTSISSRLILFCQFL,-0.129
13,GNVSDGVI,-0.151
14,GNWVSVNPRKGLVQDGRWGW,< -0.25
15,GPAFGVCVSSAASP,< -0.25
16,GPAHRKGASLKTGNTATTVR,< -0.25
17,GPAWAHVLIATARHSSRIQP,< -0.25
18,GPCVPVIRCWGAGNSASSPC,< -0.25
19,GPCVVALQWPR,< -0.25
20,GPDKAVRLRCAGPCNASKET,< -0.25
21,GPEVFGRRLKATSIRRKLSG,< -0.25
22,GPGAENPYV,< -0.25
23,GPGGRK,< -0.25
24,GPGGVPIYVVSAKDYGSIPA,< -0.25
25,GPGLDSY,< -0.25

row,Substance,growth estimate
1,GPH,< -0.25
2,GPHLSGRRTSRSA,< -0.25
3,GPHRLALDGLYYLGAPKEIA,< -0.25
4,GPIFSKFML,< -0.25
5,GPIGFDGG,< -0.25
6,GPIGRRGFGESSYSG,-0.231
7,GPIRPRDQLGMKGQGLAKGW,< -0.25
8,GPKCEIKCSYCIK,< -0.25
9,GPKTSERPEADWS,< -0.25
10,GPLAGGCGVLHSSNRATGCS,< -0.25
11,GPLEPIPYPVEYESNDGVLA,-0.245
12,GPLPDIGMCDVE,< -0.25
13,GPLRLVSAIQMKACAYLRHG,< -0.25
14,GPLVSGIVSLKPQ,< -0.25
15,GPNTAEVLISNLRSIKPNAP,< -0.25
16,GPPARSVHSEQRLARCHIGR,< -0.25
17,GPPTDGEGQRRGPYSVPVCA,< -0.25
18,GPQDATLGGTSEKWYLLRSP,< -0.25
19,GPQGNASPVN,< -0.25
20,GPQRLGRFHRAFSVFLRAPP,< -0.25
21,GPQTWLSFGLRDYGGSSDIL,< -0.25
22,GPRDLSGA,< -0.25
23,GPRGR,< -0.25
24,GPRGTVGWGSDVRRPWSRSH,< -0.25
25,GPRLRVEKWCRKGQRSCLIG,< -0.25

row,Substance,growth estimate
1,GPRQPSEVALERHPPLCAAA,< -0.25
2,GPRRASSFFLKFDANVGNSR,< -0.25
3,GPRTCPVSRAIIRTGRNGFM,< -0.25
4,GPRTRGHREYTNSARKYWLK,< -0.25
5,GPSEDFRDTIRYRTAIPLPP,< -0.25
6,GPSITIGKQQDL,< -0.25
7,GPSLLRWNE,< -0.25
8,GPSLQS,< -0.25
9,GPSQLRGRGSCRDFTWWDAS,< -0.25
10,GPSVFRCGLDDCHTFYEGTP,< -0.25
11,GPSYLGDHNFKSVTWAGVIV,< -0.25
12,GPTGWQFVLFGSS,< -0.25
13,GPTMRFSLLPLRPRFKH,< -0.25
14,GPTRLLTW,< -0.25
15,GPVV,< -0.25
16,GPYCITSS,< -0.25
17,GQACRWRVHVALVYVALHTD,< -0.25
18,GQARPQPTCCFRG,< -0.25
19,GQARVDSRISC,< -0.25
20,GQCIATICGPCGNPELSW,< -0.25
21,GQEELVVCMCIFRSVAGRVC,< -0.25
22,GQESSADVHAVDGAANSTHP,< -0.25
23,GQFRPIYEVMDAVVGSVRPS,< -0.25
24,GQFRPLNMVVPICKCAYVCV,< -0.25
25,GQG,< -0.25

row,Substance,growth estimate
1,GQGLSKNSRRYHTPSKKAM,< -0.25
2,GQGTDG,< -0.25
3,GQISPHACKLRKVSLQVP,< -0.25
4,GQKAGQPQPKALVAGASSAR,< -0.25
5,GQKLAHPESA,< -0.25
6,GQLFDLRRPPRGQMAP,< -0.25
7,GQLFLWGMEWSW,< -0.25
8,GQLG,< -0.25
9,GQLLDAFGKPADRSWFYSQS,< -0.25
10,GQLSRPYIAAQVPGKTWGPM,< -0.25
11,GQMWYSIREPTFL,< -0.25
12,GQNDVEVDEYPERAVISRYH,< -0.25
13,GQPKTKVLC,< -0.25
14,GQPNPGDRLN,< -0.25
15,GQPVRPPRQGA,< -0.25
16,GQQEPDLGRGAGTRWSGMHM,< -0.25
17,GQRGLTMISIGLTERNPSLC,< -0.25
18,GQRRRRRSFTTPPSTPIGI,< -0.25
19,GQS,< -0.25
20,GQSPNGGHNEAYL,< -0.25
21,GQSRD,< -0.25
22,GQSVSSNRGPGSVPWVTRLR,< -0.25
23,GQVFRSGKMP,< -0.25
24,GQVIRTRPSPRDLSRIRDIG,< -0.25
25,GQVTL,< -0.25

# 41 successive records already listed, quoted:
row,Substance,growth estimate
2,GPHLSGRRTSRSA,< -0.25
3,GPHRLALDGLYYLGAPKEIA,< -0.25
4,GPIFSKFML,< -0.25
5,GPIGFDGG,< -0.25
6,GPIGRRGFGESSYSG,-0.231
7,GPIRPRDQLGMKGQGLAKGW,< -0.25
8,GPKCEIKCSYCIK,< -0.25
9,GPKTSERPEADWS,< -0.25
10,GPLAGGCGVLHSSNRATGCS,< -0.25
11,GPLEPIPYPVEYESNDGVLA,-0.245
12,GPLPDIGMCDVE,< -0.25
13,GPLRLVSAIQMKACAYLRHG,< -0.25
14,GPLVSGIVSLKPQ,< -0.25
15,GPNTAEVLISNLRSIKPNAP,< -0.25
16,GPPARSVHSEQRLARCHIGR,< -0.25
17,GPPTDGEGQRRGPYSVPVCA,< -0.25
18,GPQDATLGGTSEKWYLLRSP,< -0.25
19,GPQGNASPVN,< -0.25
20,GPQRLGRFHRAFSVFLRAPP,< -0.25
21,GPQTWLSFGLRDYGGSSDIL,< -0.25
22,GPRDLSGA,< -0.25
23,GPRGR,< -0.25
24,GPRGTVGWGSDVRRPWSRSH,< -0.25
25,GPRLRVEKWCRKGQRSCLIG,< -0.25
1,GPRQPSEVALERHPPLCAAA,< -0.25
2,GPRRASSFFLKFDANVGNSR,< -0.25
3,GPRTCPVSRAIIRTGRNGFM,< -0.25
4,GPRTRGHREYTNSARKYWLK,< -0.25
5,GPSEDFRDTIRYRTAIPLPP,< -0.25
6,GPSITIGKQQDL,< -0.25
7,GPSLLRWNE,< -0.25
8,GPSLQS,< -0.25
9,GPSQLRGRGSCRDFTWWDAS,< -0.25
10,GPSVFRCGLDDCHTFYEGTP,< -0.25
11,GPSYLGDHNFKSVTWAGVIV,< -0.25
12,GPTGWQFVLFGSS,< -0.25
13,GPTMRFSLLPLRPRFKH,< -0.25
14,GPTRLLTW,< -0.25
15,GPVV,< -0.25
16,GPYCITSS,< -0.25
17,GQACRWRVHVALVYVALHTD,< -0.25

# Next records follow.

row,Substance,growth estimate
1,GQWSPPGVTEVASAAGQYMA,< -0.25
2,GRAAFQGIEHGPAGPASNVR,< -0.25
3,GRAATGLITKVNKVSVLS,< -0.25
4,GRAAVTL,< -0.25
5,GRAGTGPNHGHPRLPREVPR,< -0.25
6,GRALVSETEERLSKWEIFQR,< -0.25
7,GRAPRNSMIDWELVVAQDTH,< -0.25
8,GRASNPEDRHDATRTSASQR,< -0.25
9,GRAVSRFQVFAANVRYRTHK,< -0.25
10,GRCGDSTIRYLIPPAGTLTP,< -0.25
11,GRCGIGVWPWHALGPAYKPS,< -0.25
12,GRCKAQ,-0.243
13,GRCSLERTTDWGCR,< -0.25
14,GRCSVD,< -0.25
15,GRCVPRFVKLIA,< -0.25
16,GRDRAH,< -0.25
17,GRDSRAVVLHGLFSPQEYAP,< -0.25
18,GRDY,< -0.25
